Results published in paper PMC9436968, “Crosstalk between SUMOylation and ubiquitylation controls DNA end resection by maintaining MRE11 homeostasis on chromatin” (Nature Communications, 2022).
No constants are given. Whether binding was seen depends on the method and setting. For part of these data: In cells and extracts the contact can be indirect. Some results given as binding are weak or reduced against the parent protein; the word gives no strength. Each block holds one substance with its values, some of them ahead of it.

Sequences of proteins named here, by UniProt entry; tags and fusion partners are left off.
UniProt O75925: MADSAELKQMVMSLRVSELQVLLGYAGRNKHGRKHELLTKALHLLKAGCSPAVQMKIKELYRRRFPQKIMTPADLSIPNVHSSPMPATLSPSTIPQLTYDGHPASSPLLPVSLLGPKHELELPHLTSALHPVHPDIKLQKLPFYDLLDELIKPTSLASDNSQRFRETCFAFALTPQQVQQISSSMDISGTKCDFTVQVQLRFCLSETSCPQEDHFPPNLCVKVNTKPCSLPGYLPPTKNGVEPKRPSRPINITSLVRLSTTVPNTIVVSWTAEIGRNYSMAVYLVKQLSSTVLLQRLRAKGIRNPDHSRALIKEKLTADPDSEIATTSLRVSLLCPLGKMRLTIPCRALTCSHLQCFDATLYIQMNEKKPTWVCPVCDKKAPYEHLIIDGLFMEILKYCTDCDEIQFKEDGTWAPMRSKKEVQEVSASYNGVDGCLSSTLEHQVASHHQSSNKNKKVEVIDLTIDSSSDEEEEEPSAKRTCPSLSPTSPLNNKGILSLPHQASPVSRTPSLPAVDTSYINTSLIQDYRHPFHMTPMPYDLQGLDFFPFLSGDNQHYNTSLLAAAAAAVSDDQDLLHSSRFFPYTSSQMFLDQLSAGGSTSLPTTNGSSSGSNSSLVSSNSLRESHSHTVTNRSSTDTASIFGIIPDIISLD
UniProt Q9H4L4: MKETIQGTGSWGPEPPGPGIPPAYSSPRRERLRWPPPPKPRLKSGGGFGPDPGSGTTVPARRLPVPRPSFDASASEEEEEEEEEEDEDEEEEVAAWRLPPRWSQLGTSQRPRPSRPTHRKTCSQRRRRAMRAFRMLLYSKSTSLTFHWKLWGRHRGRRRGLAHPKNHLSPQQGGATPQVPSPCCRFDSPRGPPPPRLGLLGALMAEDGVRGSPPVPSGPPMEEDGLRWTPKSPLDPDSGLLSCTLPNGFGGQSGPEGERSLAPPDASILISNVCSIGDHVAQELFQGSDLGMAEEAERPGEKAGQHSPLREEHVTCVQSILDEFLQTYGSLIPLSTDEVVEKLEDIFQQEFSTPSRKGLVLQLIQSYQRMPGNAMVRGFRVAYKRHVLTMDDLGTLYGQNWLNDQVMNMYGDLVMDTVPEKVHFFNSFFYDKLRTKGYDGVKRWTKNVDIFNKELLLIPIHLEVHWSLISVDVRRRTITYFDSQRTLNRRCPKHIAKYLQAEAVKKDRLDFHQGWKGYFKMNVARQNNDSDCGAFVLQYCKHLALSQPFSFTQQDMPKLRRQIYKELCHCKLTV

What was measured:
[1] = biological target: MBP-PIAS1 (UniProt O75925); assay: pull-down; purified proteins in T50 buffer, pulled down with amylose beads; MBP-PIAS1 (150 nM) and Flag-MRE11 (50 nM), also with overhang DNA (90 nM), which promoted the interaction; both purified
[2] = biological target: T1, SFB-MRE11 (UniProt P49959); assay: co-IP; SFB-MRE11 as bait in HEK293T cells, endogenous PIAS1 detected; with or without CPT
T1 sequence: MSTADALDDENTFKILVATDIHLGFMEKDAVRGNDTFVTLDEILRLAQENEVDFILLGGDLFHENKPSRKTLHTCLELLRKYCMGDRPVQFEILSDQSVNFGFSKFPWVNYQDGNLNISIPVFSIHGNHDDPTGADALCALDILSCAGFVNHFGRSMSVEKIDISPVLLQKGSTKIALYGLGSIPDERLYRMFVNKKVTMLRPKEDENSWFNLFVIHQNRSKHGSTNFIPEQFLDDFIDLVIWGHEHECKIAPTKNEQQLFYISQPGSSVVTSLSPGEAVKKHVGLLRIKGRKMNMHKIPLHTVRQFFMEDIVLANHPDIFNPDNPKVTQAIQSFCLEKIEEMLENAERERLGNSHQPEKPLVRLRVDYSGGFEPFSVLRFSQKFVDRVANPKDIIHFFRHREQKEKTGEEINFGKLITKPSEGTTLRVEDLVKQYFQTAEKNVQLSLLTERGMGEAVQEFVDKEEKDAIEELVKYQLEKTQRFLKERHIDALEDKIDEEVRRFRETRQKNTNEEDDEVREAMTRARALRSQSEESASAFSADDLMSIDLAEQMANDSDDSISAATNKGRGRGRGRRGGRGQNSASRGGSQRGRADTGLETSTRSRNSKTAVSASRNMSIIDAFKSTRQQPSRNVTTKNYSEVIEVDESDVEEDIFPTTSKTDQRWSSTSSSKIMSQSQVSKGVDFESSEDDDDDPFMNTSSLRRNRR

[3] = biological target: Flag-4KR (complexed with RAD50) (UniProt P49959); assay: pull-down; Supplementary Fig. 3b, legend not shown; the methods tell of Flag-WT-MRE11 and Flag-4KR (complexed with RAD50) incubated with MBP-PIAS1 in T50 buffer, anti-Flag M2 or amylose beads; both purified
[4] = biological target: Flag-WT-MRE11 (complexed with RAD50) (UniProt P49959); assay: as above
[5] = biological target: Flag-WT-MRE11 (complexed with RAD50) (UniProt P49959); assay: pull-down; purified proteins incubated in T50 buffer (25 mM Tris-HCl pH 7.5, 10% glycerol, 0.5 mM EDTA, 50 mM KCl, 1 mM DTT, 0.01% Igepal) on ice for 2 h, pulled down by anti-Flag M2 beads; supernatant and eluate immunoblotted; both purified
[6] = biological target: T2, MRE11 (UniProt P49959); assay: co-IP; mutual co-IP of MRE11 and SENP3 in cells; with or without DNA damage, ATMi or ATRi
T2 sequence: T1 sequence

binding [1]: binds
Substance: Flag-WT-MRE11 (complexed with RAD50) (from UniProt P49959 1-708; Q92878 1-1312)

binding [2]: binds
Substance: endogenous PIAS1 (from UniProt O75925 1-651)

binding [3]: binds
binding [4]: binds
binding [5]: binds
Substance: MBP-PIAS1 (from UniProt O75925 1-651) (enzyme)

Substance: SENP3 (from UniProt Q9H4L4 1-574) (enzyme)
binding [6]: binds
